PubChem BioAssay AID1508588 | Peter MacCallum Cancer Centre – 2020

- Assay: 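Genome-wide search for knock-downs that heighten vemurafenib action in melanoma cells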 (primary screen)
- System: human WM266.4 melanoma cells (BRAF V600 mutant)
- Reagent: siRNA pool against human genes, 40 nM
- Duration: 96 h from transfection to read-out
- Treatment: vemurafenib 300 nM (about IC25), added 48 h after transfection, for 48 h; comparison arm got DMSO vehicle only
- Measurement: 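Ratios to non-targeting siRNA for cell gain, counted as DAPI nuclei after minus before drug and averaged over two replicates, and for absorbance-read medium lactate per cell; both binned into fold-change classes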
- Reading the numbers: cell gain with vemurafenib: higher = more cell gain than with non-targeting siRNA; lactate per cell with vemurafenib: higher = more lactate made per cell
- Rule for the call: 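Enhancement is called by pairing each knock-down's vehicle-arm and drug-arm fold-change classes for viability or glycolysis; which class combinations qualify is not given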
- Meaning of the calls: active = enhances vemurafenib effect; inactive = no enhancement seen
The deposit covers about 18,000 reagents; below is an unselected part. Of all reagents, 790 (4.4%) got an active call. 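Calls rest on a combination of fold-change classes in drug and vehicle arms, not all shown here.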

gene knocked down	PubChem SID	cell gain with vemurafenib	lactate per cell with vemurafenib	Call
PDE1B	SID134312686	0.63	0.46	inactive
IFRD2	SID134320422	0.99	0.3	inactive
ITGA2	SID152150596	0.35	1.29	inactive
SCN3B	SID135623280	0.87	0.56	inactive
RBM12B	SID152154973	0.62	1.08	inactive
KCMF1	SID152151655	0.87	0.22	inactive
TMEM184C	SID134323974	0.92	0.7	active
KLF3	SID152148591	0.42	0.88	inactive
NTN5	SID135623212	0.48	0.82	inactive
TMEM244	SID152154930	0.76	0.72	inactive
PLK3	SID56478615	0.31	0.74	inactive
H2BW1	SID152148343	0.36	1.62	inactive
LRRCC1	SID152147953	0.46	1.2	inactive
SLA	SID135622005	0.45	1.07	inactive
POLE	SID152148923	0.11	0.56	inactive
DOCK7	SID152149470	0.47	0.66	inactive
LIPT1	SID134313279	0.75	0.92	inactive
CNOT8	SID134322632	1.14	0.64	inactive
GBP2	SID134316183	1.19	0.67	inactive
SOCS6	SID135623321	0.66	1.15	inactive
MAN2C1	SID134313207	0.7	1.06	inactive
NTNG2	SID134324885	0.55	0.62	inactive
OR11H4	SID152149542	0.52	0.51	inactive
SPEM1	SID135625085	0.31	1.08	inactive
CNOT6L	SID152146838	0.57	0.94	inactive
MRM3	SID134319493	0.94	0.98	inactive
ZNF449	SID152152237	0.39	1.73	inactive
TXLNG	SID134324456	1.14	0.34	inactive
JHY	SID134318608	0.25	1.79	inactive
KBTBD6	SID135623021	1.08	0.88	inactive
C9orf153	SID152150264	1.01	1.02	inactive
KRT15	SID135622182	1	1.12	inactive
SIRPD	SID152147393	0.73	0.99	inactive
PANX3	SID134319227	0.59	0.98	inactive

Sorted by “cell gain with vemurafenib” (descending): 5 of the entries above.
gene knocked down	PubChem SID	cell gain with vemurafenib	lactate per cell with vemurafenib	Call
TMEM184C	SID134323974	0.92	0.7	active
TMEM244	SID152154930	0.76	0.72	inactive
NTN5	SID135623212	0.48	0.82	inactive
KLF3	SID152148591	0.42	0.88	inactive
PLK3	SID56478615	0.31	0.74	inactive
